# Test results published in the supplement of paper PMC10849652.
# Amino acid sequences for entries named in this document (tags omitted). A change or cut given only in a name is not applied to a line headed by its entry.
# UniProt Q53FZ2: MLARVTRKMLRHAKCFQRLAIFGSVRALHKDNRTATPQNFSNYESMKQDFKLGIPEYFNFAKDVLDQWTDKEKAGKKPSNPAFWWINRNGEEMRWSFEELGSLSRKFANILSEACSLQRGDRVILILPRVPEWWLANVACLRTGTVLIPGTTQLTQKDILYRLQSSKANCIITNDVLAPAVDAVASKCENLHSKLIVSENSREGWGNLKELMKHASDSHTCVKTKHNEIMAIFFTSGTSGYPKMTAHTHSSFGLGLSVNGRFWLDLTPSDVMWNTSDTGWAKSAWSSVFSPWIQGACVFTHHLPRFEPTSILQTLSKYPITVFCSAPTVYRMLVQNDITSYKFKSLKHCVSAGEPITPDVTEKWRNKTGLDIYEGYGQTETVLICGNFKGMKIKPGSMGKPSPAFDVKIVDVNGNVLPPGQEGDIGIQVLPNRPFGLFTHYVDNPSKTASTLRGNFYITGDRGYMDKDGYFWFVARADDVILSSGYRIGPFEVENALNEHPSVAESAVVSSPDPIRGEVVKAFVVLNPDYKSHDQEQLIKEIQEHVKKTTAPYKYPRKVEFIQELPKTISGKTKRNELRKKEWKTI
# UniProt O00763, whole entry, looked up: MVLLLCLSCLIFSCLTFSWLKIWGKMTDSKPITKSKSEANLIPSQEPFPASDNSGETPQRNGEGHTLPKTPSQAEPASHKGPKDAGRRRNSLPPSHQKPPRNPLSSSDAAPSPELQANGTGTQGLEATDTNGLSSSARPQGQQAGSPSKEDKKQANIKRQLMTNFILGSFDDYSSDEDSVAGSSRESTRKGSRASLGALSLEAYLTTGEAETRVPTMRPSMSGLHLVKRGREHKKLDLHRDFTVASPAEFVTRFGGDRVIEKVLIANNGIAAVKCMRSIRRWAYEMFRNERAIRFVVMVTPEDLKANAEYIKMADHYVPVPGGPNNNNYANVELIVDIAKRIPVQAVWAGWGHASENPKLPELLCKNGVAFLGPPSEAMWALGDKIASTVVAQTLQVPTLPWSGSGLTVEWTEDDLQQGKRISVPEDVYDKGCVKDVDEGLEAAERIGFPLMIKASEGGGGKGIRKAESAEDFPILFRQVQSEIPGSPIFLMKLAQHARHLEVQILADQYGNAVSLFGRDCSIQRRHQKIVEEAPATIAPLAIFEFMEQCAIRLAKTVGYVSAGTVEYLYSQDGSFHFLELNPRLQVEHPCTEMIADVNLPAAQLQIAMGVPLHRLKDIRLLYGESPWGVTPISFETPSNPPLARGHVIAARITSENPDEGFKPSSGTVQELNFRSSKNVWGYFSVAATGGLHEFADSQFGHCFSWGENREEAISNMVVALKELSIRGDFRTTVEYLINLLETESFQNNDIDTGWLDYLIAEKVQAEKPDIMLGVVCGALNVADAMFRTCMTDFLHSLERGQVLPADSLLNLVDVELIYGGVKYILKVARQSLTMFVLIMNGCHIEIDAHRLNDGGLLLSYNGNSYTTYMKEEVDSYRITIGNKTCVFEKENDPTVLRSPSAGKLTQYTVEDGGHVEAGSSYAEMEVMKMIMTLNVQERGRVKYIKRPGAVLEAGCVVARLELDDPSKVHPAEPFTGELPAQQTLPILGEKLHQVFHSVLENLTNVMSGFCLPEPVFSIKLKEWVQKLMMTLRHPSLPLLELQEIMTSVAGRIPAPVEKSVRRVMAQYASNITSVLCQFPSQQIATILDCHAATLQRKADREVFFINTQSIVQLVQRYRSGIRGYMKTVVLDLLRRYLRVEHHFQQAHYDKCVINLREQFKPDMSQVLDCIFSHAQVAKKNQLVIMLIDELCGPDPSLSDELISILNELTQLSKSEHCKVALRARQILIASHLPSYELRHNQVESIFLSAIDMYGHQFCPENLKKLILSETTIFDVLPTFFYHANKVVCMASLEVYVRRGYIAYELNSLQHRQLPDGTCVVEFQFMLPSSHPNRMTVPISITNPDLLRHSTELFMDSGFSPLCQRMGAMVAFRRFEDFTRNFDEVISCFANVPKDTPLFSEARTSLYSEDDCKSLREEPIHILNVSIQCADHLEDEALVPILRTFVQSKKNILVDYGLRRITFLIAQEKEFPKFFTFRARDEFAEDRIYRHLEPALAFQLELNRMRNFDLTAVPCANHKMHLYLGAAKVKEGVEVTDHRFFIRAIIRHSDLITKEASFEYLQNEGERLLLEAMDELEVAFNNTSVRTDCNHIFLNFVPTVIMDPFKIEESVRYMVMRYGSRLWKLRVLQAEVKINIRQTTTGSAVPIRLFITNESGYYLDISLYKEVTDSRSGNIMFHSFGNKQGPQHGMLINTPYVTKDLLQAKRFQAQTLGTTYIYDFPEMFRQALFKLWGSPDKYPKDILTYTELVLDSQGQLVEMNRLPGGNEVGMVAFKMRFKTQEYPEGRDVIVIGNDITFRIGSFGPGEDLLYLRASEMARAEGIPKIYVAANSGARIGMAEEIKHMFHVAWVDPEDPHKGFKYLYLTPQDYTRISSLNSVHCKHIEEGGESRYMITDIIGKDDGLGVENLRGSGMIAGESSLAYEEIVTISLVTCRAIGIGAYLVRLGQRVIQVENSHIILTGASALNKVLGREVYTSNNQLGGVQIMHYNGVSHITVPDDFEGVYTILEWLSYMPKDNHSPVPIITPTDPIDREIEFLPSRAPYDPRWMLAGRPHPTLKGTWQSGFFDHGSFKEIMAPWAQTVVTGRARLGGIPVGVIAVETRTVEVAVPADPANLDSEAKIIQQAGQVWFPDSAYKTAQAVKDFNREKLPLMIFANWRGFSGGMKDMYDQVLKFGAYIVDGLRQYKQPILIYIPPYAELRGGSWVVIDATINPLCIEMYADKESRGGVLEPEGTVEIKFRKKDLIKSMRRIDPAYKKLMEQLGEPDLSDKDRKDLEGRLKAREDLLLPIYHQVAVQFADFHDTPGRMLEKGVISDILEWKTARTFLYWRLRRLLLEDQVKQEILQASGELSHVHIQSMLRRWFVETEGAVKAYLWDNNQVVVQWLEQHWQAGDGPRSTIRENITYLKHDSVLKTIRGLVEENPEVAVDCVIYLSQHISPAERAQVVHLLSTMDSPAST
# UniProt Q5T3U5: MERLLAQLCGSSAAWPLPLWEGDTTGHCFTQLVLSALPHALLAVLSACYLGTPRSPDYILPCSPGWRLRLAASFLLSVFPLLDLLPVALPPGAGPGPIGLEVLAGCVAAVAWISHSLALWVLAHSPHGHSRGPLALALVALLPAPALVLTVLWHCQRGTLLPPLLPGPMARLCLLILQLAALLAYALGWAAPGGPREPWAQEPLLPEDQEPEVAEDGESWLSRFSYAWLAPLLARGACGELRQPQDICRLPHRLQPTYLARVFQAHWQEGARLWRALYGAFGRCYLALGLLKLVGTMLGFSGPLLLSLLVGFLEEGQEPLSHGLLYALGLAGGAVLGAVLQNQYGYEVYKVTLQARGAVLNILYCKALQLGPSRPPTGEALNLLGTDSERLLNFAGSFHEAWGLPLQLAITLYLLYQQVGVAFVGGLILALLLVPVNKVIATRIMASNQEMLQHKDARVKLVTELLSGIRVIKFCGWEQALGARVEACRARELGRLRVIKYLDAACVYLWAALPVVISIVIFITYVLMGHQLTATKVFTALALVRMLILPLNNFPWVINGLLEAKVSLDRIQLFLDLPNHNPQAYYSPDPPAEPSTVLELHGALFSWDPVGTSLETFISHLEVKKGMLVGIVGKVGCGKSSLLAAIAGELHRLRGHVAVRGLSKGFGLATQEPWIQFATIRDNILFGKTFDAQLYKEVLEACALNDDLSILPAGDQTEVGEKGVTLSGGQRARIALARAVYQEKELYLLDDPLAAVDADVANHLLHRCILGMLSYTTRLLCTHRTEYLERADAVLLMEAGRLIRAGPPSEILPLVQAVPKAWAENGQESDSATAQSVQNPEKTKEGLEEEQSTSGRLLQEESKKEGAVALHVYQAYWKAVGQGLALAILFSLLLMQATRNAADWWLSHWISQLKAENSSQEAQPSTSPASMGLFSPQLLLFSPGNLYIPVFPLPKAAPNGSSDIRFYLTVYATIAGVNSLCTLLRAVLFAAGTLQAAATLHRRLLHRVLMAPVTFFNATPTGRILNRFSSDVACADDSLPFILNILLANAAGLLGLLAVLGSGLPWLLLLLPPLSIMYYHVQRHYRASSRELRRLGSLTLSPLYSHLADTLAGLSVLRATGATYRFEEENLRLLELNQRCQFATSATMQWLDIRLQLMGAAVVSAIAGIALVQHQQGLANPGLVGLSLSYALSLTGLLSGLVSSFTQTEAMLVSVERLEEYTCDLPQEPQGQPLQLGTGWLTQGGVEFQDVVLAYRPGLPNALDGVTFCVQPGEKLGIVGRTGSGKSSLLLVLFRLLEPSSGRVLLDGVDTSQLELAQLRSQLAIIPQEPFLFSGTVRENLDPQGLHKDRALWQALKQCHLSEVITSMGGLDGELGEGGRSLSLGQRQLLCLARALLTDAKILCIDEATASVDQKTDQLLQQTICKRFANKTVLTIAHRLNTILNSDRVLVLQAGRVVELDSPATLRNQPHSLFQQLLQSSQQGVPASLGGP
# UniProt Q13685: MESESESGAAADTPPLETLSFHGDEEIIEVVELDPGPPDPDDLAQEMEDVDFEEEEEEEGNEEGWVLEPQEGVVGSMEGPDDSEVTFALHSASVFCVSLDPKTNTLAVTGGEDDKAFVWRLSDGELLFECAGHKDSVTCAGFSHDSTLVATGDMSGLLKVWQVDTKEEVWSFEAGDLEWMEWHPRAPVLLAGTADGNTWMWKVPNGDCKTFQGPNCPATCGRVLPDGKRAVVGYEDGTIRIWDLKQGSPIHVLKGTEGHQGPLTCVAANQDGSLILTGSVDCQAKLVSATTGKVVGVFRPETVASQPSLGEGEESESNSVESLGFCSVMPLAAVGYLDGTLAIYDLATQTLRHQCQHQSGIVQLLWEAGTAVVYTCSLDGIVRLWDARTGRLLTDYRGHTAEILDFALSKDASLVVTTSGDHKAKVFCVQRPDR
# UniProt Q8TDG2: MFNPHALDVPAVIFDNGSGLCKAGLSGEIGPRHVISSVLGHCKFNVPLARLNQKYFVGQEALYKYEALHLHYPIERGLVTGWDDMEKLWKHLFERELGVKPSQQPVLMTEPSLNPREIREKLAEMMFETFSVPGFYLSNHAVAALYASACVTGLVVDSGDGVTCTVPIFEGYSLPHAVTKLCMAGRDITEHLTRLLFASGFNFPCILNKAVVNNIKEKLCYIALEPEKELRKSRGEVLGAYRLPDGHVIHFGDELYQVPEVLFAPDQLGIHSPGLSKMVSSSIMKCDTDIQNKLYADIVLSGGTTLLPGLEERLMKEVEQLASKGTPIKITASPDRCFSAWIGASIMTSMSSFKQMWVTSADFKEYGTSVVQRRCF
# UniProt Q9H845: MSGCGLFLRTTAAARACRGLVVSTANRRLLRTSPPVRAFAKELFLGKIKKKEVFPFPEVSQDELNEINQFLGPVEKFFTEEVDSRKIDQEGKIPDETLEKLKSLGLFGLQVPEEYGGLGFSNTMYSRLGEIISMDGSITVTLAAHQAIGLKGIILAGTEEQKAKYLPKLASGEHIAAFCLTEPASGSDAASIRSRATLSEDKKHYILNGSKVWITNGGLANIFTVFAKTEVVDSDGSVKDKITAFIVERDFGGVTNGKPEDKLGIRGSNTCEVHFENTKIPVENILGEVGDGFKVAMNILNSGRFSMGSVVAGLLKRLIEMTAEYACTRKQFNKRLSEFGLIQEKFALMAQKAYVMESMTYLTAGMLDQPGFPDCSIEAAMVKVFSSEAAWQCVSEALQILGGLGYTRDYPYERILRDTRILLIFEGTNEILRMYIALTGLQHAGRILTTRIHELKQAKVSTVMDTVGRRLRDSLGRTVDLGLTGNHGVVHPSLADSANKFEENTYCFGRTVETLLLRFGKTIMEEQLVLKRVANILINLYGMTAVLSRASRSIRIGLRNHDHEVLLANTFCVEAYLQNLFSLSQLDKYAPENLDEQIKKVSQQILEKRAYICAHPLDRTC
# UniProt Q9BR61: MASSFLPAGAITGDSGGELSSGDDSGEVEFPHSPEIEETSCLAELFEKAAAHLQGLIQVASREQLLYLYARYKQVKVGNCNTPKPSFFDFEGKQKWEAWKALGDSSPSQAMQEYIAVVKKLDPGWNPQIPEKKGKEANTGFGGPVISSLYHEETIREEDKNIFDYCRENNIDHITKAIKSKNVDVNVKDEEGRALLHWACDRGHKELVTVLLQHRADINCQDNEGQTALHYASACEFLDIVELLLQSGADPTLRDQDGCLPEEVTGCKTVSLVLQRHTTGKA
# The other results are listed elsewhere or left out. Residues, ends and D or L forms follow the SMILES beside them. *: point of attachment. Cbz = O=C(OCc1ccccc1)*
# Legend:
# Assay in all cases: log2 fold change, soluble protein after heating vs DMSO (PISA); higher = thermal stabilisation; K562 cells, 10 uM, 30 min; active = over 0.2 and 3.5 SD of the protein, either way, in both replicates (recomputed)
# erlotinib = compound: C#Cc1cccc(Nc2ncnc3cc(OCCOC)c(OCCOC)cc23)c1 [erlotinib]
# Method in brief: (§1)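 Soluble protein was defined as the supernatant after 21,000xg for 90 min. It came from K562 cells at 2×10^6 cells/mL given 10 μM compound for 30 min, heated in aliquots for 3 min across 48°C-58°C, pooled, and extracted in PBS with 0.5% NP-40 at 4°C, and was quantified by TMTpro 16plex LC-MS/MS with equalised channel sums. Thermal stability against control samples, from duplicates, is reported as log2 fold change.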
# [1] = compound: C/C(=N\NC(=O)C1=CC(=CC=C1)S(=O)(=O)N2CCOCC2)/C3=C(C=CC(=C3)Cl)O
# Method in brief: as §1
# [2] = compound: C1=CC(=C(C=C1Cl)C2=NC3=NC=CN=C3C(=N2)NC4=CC=NC=C4)F
# Method in brief: as §1
# [3] = compound: C1=CC(=CC=C1C2=NC3=C(N2)C=C(C=C3)C(=O)N)OC4=CC=C(C=C4)Cl
# Method in brief: as §1
# [4] = compound: C1=CC2=C(C=CC(=C2)/C=C\3/C(=O)NC(=NCC4=CC=CS4)S3)N=C1
# Method in brief: as §1
# [5] = compound: C1=CC2=NC=CN=C2C=C1/C=C/3\C(=O)NC(=O)S3
# Method in brief: as §1
# [6] = compound: C1=CC=C(C=C1)C2=NC(=C(N2)C3=CC=NC=C3)C4=CC(=C(C=C4)Cl)O
# Method in brief: as §1
# [7] = compound: C1=CC=C2C(=C1)C3=NNC4=CC=CC(=C43)C2=O
# Method in brief: as §1
# [8] = compound: C1CCN(C1)C(=O)NC2=CC=CC(=C2)NC3=NC=C(C(=N3)NCCC4=CN=CN4)Br
# Method in brief: as §1
# [9] = compound: C1CN(CCC1(CC2=CC=C(C=C2)Cl)N)C3=NC=NC4=C3C=CN4
# Method in brief: as §1
# IRAK-1-4 Inhibitor I = compound: C1COCCN1CCN2C3=CC=CC=C3N=C2NC(=O)C4=CC(=CC=C4)[N+](=O)[O-] [IRAK-1-4 Inhibitor I]
# Method in brief: as §1
# ibrutinib = compound: C=CC(=O)N1CCC[C@@H](n2nc(-c3ccc(Oc4ccccc4)cc3)c3c(N)ncnc32)C1 [ibrutinib]
# Method in brief: as §1
# [10] = compound: CC(=O)c1cnc2ccc(-c3cc(Cl)c(O)c(Cl)c3)nc2c1N[C@H]1CC[C@H](CN(C)C)CC1
# Method in brief: as §1
# ralimetinib = compound: CC(C)(C)Cn1c(N)nc2ccc(-c3[nH]c(C(C)(C)C)nc3-c3ccc(F)cc3)nc21 [ralimetinib]
# Method in brief: as §1
# [11] = compound: CC(C)(O)CC(=O)NCCn1ccc2ncnc(Nc3ccc(Oc4cccc(C(F)(F)F)c4)c(Cl)c3)c21
# Method in brief: as §1
# [12] = compound: CC(C)C1=C2N=C(C=C(N2N=C1)NCC3=CC=CC=C3)NCCCCCCN
# Method in brief: as §1
# [13] = compound: CC(C)C[C@@H](C=O)NC(=O)[C@H](CC(C)C)NC(=O)[C@H](CC(C)C)NC(=O)OCc1ccccc1
# Method in brief: as §1
# pinometostat = compound: CC(C)N(C[C@H]1O[C@@H](n2cnc3c(N)ncnc32)[C@H](O)[C@@H]1O)[C@H]1C[C@@H](CCc2nc3cc(C(C)(C)C)ccc3[nH]2)C1 [pinometostat]
# Method in brief: as §1
# [14] = compound: CC1=C(C2=C(C=C1)C(=O)C3=CC=CC=C3N2CCCN)C
# Method in brief: as §1
# [15] = compound: CC1=C(C(CC(=O)N1)C2=CC=C(C=C2)C(F)(F)F)C(=O)NC3=C(C=C4C(=C3)C=NN4)F
# Method in brief: as §1
Target,log2 fold change (erlotinib),log2 fold change [1],log2 fold change [2],log2 fold change [3],log2 fold change [4],log2 fold change [5],log2 fold change [6],log2 fold change [7],log2 fold change [8],log2 fold change [9],log2 fold change (IRAK-1-4 Inhibitor I),log2 fold change (ibrutinib),log2 fold change [10],log2 fold change (ralimetinib),log2 fold change [11],log2 fold change [12],log2 fold change [13],log2 fold change (pinometostat),log2 fold change [14],log2 fold change [15]
ACSM3 (UniProt Q53FZ2),inactive: 0.078,inactive: 0.01,inactive: 0.076,inactive: -0.235,inactive: 0.088,inactive: -0.009,inactive: -0.078,inactive: -0.072,inactive: 0.009,inactive: 0.01,inactive: 0,inactive: -0.021,inactive: -0.11,inactive: -0.003,active: -0.397,inactive: -0.155,inactive: -0.086,inactive: 0.046,inactive: 0.041,–
ACACB (UniProt O00763),inactive: 0.048,inactive: -0.094,inactive: -0.212,inactive: -0.108,inactive: 0.07,inactive: -0.123,inactive: 0.132,inactive: -0.028,inactive: -0.059,inactive: -0.143,inactive: -0.23,inactive: 0.02,inactive: 0.108,inactive: 0.216,inactive: 0,active: -0.515,inactive: 0.066,inactive: 0.315,inactive: 0.027,–
ABCC10 (UniProt Q5T3U5),inactive: 0.142,inactive: -0.102,inactive: 0.03,inactive: -0.027,inactive: -0.19,inactive: 0.055,inactive: -0.062,inactive: 0.198,inactive: -0.03,inactive: -0.022,–,inactive: -0.083,inactive: 0.107,inactive: -0.107,inactive: 0.028,inactive: -0.253,inactive: 0.183,–,inactive: 0.15,inactive: -0.12
AAMP (UniProt Q13685),inactive: 0.025,inactive: -0.032,inactive: 0.006,inactive: -0.003,inactive: 0.042,inactive: 0.074,inactive: -0.007,inactive: 0.003,inactive: -0.006,inactive: 0.085,inactive: 0.007,inactive: 0.023,inactive: 0.064,inactive: 0.031,inactive: 0.04,inactive: -0.051,inactive: -0.02,inactive: 0.007,active: 0.225,–
ABCE1 (UniProt H0Y990),inactive: -0.047,inactive: -0.06,inactive: 0.304,inactive: -0.167,inactive: -0.014,inactive: -0.043,–,inactive: 0.037,inactive: 0.054,inactive: 0.034,–,inactive: -0.087,inactive: 0.111,–,inactive: -0.04,inactive: 0.151,–,–,inactive: 0.042,inactive: 0.066
ABRAXAS1 (UniProt Q6UWZ7),inactive: -0.081,inactive: -0.088,inactive: -0.015,inactive: 0.06,inactive: -0.248,inactive: -0.063,inactive: 0.061,inactive: -0.07,inactive: -0.007,inactive: -0.142,inactive: -0.134,inactive: -0.028,inactive: -0.112,inactive: 0.071,inactive: -0.011,inactive: 0.109,inactive: -0.053,inactive: 0.173,inactive: 0.066,–
ACADVL isoform 3 (UniProt P49748),inactive: 0.008,inactive: 0.015,inactive: 0.035,active: 0.291,inactive: 0.023,inactive: 0.055,inactive: 0.027,inactive: 0.155,inactive: 0.025,inactive: 0.043,inactive: 0.038,inactive: -0.002,inactive: 0.005,inactive: -0.015,inactive: -0.016,inactive: -0.013,inactive: -0.025,inactive: -0.067,inactive: 0.002,–
ADAMTS5 (UniProt Q9UNA0),inactive: 0.186,active: -0.518,–,inactive: -0.124,inactive: 0.171,inactive: 0.012,inactive: 0.072,inactive: 0.043,inactive: -0.06,inactive: 0.113,inactive: 0.064,inactive: 0.127,inactive: 0.036,inactive: 0.141,–,inactive: 0.088,inactive: -0.009,inactive: -0.03,inactive: 0.025,–
ACTRT1 (UniProt Q8TDG2),inactive: 0.159,inactive: -0.02,inactive: -0.101,inactive: -0.05,inactive: 0.251,inactive: -0.008,–,inactive: -0.158,–,–,–,inactive: -0.127,inactive: -0.037,–,inactive: -0.024,inactive: 0.1,–,–,–,–
ABCB6 (UniProt Q9NP58),inactive: 0.017,inactive: 0.045,inactive: 0.029,inactive: 0.037,inactive: -0.003,inactive: 0.069,inactive: 0.087,inactive: -0.056,inactive: -0.057,inactive: 0.023,inactive: -0.018,inactive: 0.003,inactive: 0.021,inactive: 0.051,inactive: -0.073,active: -0.489,inactive: -0.007,inactive: 0.037,inactive: 0.065,–
ACAD9 (UniProt Q9H845),inactive: -0.002,inactive: 0.025,inactive: 0.054,inactive: 0.015,inactive: 0.035,inactive: 0.032,inactive: 0.026,inactive: -0.002,inactive: -0.002,inactive: 0.029,inactive: 0.01,inactive: 0.005,inactive: -0.041,inactive: -0.034,inactive: 0.007,inactive: 0.002,inactive: -0.036,inactive: -0.028,inactive: 0.028,–
ACBD6 (UniProt Q9BR61),inactive: 0.056,inactive: -0.031,inactive: 0.134,inactive: 0.108,inactive: 0.007,inactive: 0.011,inactive: -0.078,inactive: 0.073,inactive: -0.186,inactive: -0.216,inactive: -0.072,inactive: 0.009,active: 0.477,inactive: -0.169,inactive: -0.068,inactive: 0.173,inactive: 0.159,inactive: 0.008,inactive: 0.074,–
ABCA7 (UniProt Q8IZY2),inactive: 0.007,inactive: -0.254,inactive: -0.012,inactive: 0.036,inactive: -0.07,inactive: 0.035,–,inactive: 0.142,–,–,–,inactive: 0.23,inactive: 0,–,inactive: -0.377,inactive: -0.346,–,–,–,inactive: 0.067
ABCA3 (UniProt Q99758),inactive: 0.011,inactive: 0.087,inactive: 0.002,inactive: 0.057,inactive: -0.027,inactive: -0.056,inactive: 0.01,inactive: 0.031,inactive: 0.094,inactive: -0.034,inactive: -0.012,inactive: -0.051,inactive: -0.005,inactive: -0.096,inactive: -0.096,inactive: -0.007,inactive: -0.017,inactive: 0.203,inactive: 0.054,–

# Three successive records out of the list so far:
Target,log2 fold change (erlotinib),log2 fold change [1],log2 fold change [2],log2 fold change [3],log2 fold change [4],log2 fold change [5],log2 fold change [6],log2 fold change [7],log2 fold change [8],log2 fold change [9],log2 fold change (IRAK-1-4 Inhibitor I),log2 fold change (ibrutinib),log2 fold change [10],log2 fold change (ralimetinib),log2 fold change [11],log2 fold change [12],log2 fold change [13],log2 fold change (pinometostat),log2 fold change [14],log2 fold change [15]
ACSM3 (UniProt Q53FZ2),inactive: 0.078,inactive: 0.01,inactive: 0.076,inactive: -0.235,inactive: 0.088,inactive: -0.009,inactive: -0.078,inactive: -0.072,inactive: 0.009,inactive: 0.01,inactive: 0,inactive: -0.021,inactive: -0.11,inactive: -0.003,active: -0.397,inactive: -0.155,inactive: -0.086,inactive: 0.046,inactive: 0.041,–
ACACB (UniProt O00763),inactive: 0.048,inactive: -0.094,inactive: -0.212,inactive: -0.108,inactive: 0.07,inactive: -0.123,inactive: 0.132,inactive: -0.028,inactive: -0.059,inactive: -0.143,inactive: -0.23,inactive: 0.02,inactive: 0.108,inactive: 0.216,inactive: 0,active: -0.515,inactive: 0.066,inactive: 0.315,inactive: 0.027,–
ABCC10 (UniProt Q5T3U5),inactive: 0.142,inactive: -0.102,inactive: 0.03,inactive: -0.027,inactive: -0.19,inactive: 0.055,inactive: -0.062,inactive: 0.198,inactive: -0.03,inactive: -0.022,–,inactive: -0.083,inactive: 0.107,inactive: -0.107,inactive: 0.028,inactive: -0.253,inactive: 0.183,–,inactive: 0.15,inactive: -0.12
